In the supplement of paper PMC3334620:
Whole data set: some 33,000 sequences, median “E-score (-0.5 to 0.5)” near -0.0014, cut for the highest 2% near 0.25. This is one part of the list.

Target: T1, Cad1 (UniProt P24813)
T1 sequence: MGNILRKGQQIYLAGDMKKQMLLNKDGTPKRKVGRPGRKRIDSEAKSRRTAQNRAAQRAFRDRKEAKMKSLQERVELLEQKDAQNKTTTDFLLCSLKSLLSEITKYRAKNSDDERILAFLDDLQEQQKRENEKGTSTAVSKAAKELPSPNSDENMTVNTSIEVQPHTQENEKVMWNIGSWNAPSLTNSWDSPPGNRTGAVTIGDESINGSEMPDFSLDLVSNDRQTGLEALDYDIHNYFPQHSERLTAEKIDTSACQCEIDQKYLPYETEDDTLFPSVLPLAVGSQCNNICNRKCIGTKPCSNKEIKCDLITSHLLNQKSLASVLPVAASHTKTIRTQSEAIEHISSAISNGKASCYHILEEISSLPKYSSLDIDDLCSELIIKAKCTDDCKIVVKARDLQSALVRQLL
Assay: PBM E-score (8-mer binding enrichment) (E-score (-0.5 to 0.5)); higher = stronger / more preferred TF binding
Settings: protein concentration: 100 nM; construct: GST-full length
How it was run: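 Universal all-10-mer Agilent arrays, fresh or stripped once, were converted to double-stranded form by primer extension. GST-tagged yeast transcription factors from PURExpress in vitro transcription/translation, full-length or DNA-binding domain only, were applied at about 100-200 nM and detected with fluorescent anti-GST. After masliner normalisation, the Universal PBM Analysis Suite scored each ungapped eight-base word together with its reverse complement by E-score.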

Row | Sequence | PBM E-score
1 | GGATTACC | 0.108
2 | GATAGGAA | 0.0138
3 | ACTTCAGC | 0.0563
4 | ACTTGTCA | 0.0733
5 | CGGAGGAC | -0.199
6 | AACGGGTA | 0.0638
7 | AAAAGTAG | -0.0506
8 | CACCGACA | -0.0582
9 | AGAGTGAG | -0.0546
10 | AGCAAGAC | -0.063
11 | AAACACAA | 0.201
12 | ACACGCCG | 0.126
13 | GTGCCCGA | -0.0847
14 | AAGTACTG | 0.0463
15 | AGACGCGA | 0.0876
16 | CTTGCGTA | 0.132
17 | ACATCCCG | 0.147
18 | ATATGTTA | -0.0486
19 | TACCCTGA | -0.00497
20 | CTGACGAC | 0.0894
21 | CTTGCAAG | 0.199
22 | ATAGCGTA | 0.0528
23 | AATGAGGA | -0.131
24 | ACAGCATC | 0.0717
25 | ATTAATTG | 0.313

Row | Sequence | PBM E-score
26 | ACGTTCCC | -0.0211
27 | CTGGACAG | 0.0236
28 | CCAATAGC | -0.184
29 | CACACCTC | 0.0119
30 | ATTTTAGG | 0.0902
31 | AAACGATA | 0.128
32 | ATGGGAAG | -0.266
33 | AGAATCTA | -0.158
34 | AACTTGTG | 0.204
35 | CGTCCAAA | 0.18
36 | ACAATGAA | 0.186
37 | GGCTTGAC | 0.0803
38 | CCCCCCAG | -0.475
39 | CGCTGTGA | -0.0225
40 | AGCCGGTA | -0.00366
41 | ATTGGTCG | 0.0539
42 | GGGACAGA | 0.0758
43 | GATTACAA | 0.294
44 | CAAGACAC | 0.157
45 | CCGGCGCA | 0.0634
46 | CGTACTCA | -0.00506
47 | CGCGACGC | 0.0887
48 | TCAAGCGA | -0.113
49 | CGAAACTA | 0.188
50 | GGTCATGA | 0.012

Row | Sequence | PBM E-score
51 | CAGGTGAC | -0.0103
52 | CGGTCCTC | -0.175
53 | CTCATAAA | 0.117
54 | ATACCTGA | 0.0917
55 | CCTAGACA | -0.213
56 | CGATTTGC | -0.00647
57 | ATCTAGAG | -0.138
58 | AGGCCCCG | -0.329
59 | ATCTATGA | 0.0449
60 | AGTGCAAT | 0.0198
61 | CCTCGCGC | 0.0362
62 | ACCTCATA | 0.0477
63 | AGAGCTCA | -0.0162
64 | CTCGTGTA | -0.0344
65 | GGAGGTAA | 0.0007
66 | GCGATCGC | 0.241
67 | ATGTGTAG | 0.00894
68 | GATCAGTA | 0.135
69 | AATTTTGA | 0.173
70 | CCAAGGAA | -0.227
71 | AGACTTTG | 0.00736
72 | AGGGGGGG | -0.429
73 | ACTGCTAG | -0.218
74 | CCCGTCGA | -0.116
75 | GATAAAAA | 0.139

Row | Sequence | PBM E-score
76 | ACTATGGA | -0.179
77 | AAAGTGTC | 0.0307
78 | CCAAGTAG | -0.189
79 | CCTGGTCG | -0.0156
80 | CGAGATTC | 0.1
81 | CGTCCCTA | -0.123
82 | CTGGCTGC | -0.0751
83 | CATGATAC | 0.214
84 | ATTTTTTC | 0.164
85 | ATATACTG | 0.2
86 | AGGCAAGC | 0.0192
87 | CGAATGAA | -0.0631
88 | CTTTTGCC | -0.0265
89 | GGACAGCA | 0.0394
90 | ATTTCCTG | 0.233
91 | GAGACCCC | -0.191
92 | CCCCAAGG | -0.307
93 | CTGCTTCA | -0.144
94 | CAAAATTA | 0.187
95 | AAATCCAC | 0.0208
96 | GTTGCACA | 0.085
97 | CCAACTGA | -0.138
98 | CGTCATAA | 0.0866
99 | AAACATGT | 0.00798
100 | GTACGATA | -0.154

A section from further up:
Row | Sequence | PBM E-score
82 | CTGGCTGC | -0.0751
83 | CATGATAC | 0.214
84 | ATTTTTTC | 0.164
85 | ATATACTG | 0.2
86 | AGGCAAGC | 0.0192
87 | CGAATGAA | -0.0631

(cont.)

Row | Sequence | PBM E-score
101 | AACGTTTA | 0.0236
102 | GCCACTCC | -0.203
103 | ATGAGAGG | -0.196
104 | ATTCACAG | -0.0301
105 | ACGAAGAA | 0.1
106 | AGCCCGTA | -0.244
107 | AGAGCTTG | -0.0589
108 | CCCGTCGC | 0.00364
109 | AAACACCC | 0.168
110 | ACGGAATA | 0.198
111 | ACGCCGGA | -0.0391
112 | AAGACGGC | 0.0515
113 | GAGTGCAA | 0.159
114 | GAATCTAC | -0.0606
115 | ACCGTTCT | -0.139
116 | CTTAGTTC | -0.057
117 | CGCAATGC | -0.0287
118 | ACCACAGT | 0.24
119 | ATGTTATG | 0.229
120 | TCAAAGGA | -0.105
121 | CGCAGTGA | 0.0792
122 | CAGGACCC | -0.182
123 | GTAGATAC | 0.0201
124 | CACCACTA | 0.106
125 | CCAGGACG | 0.00417

Row | Sequence | PBM E-score
126 | GCAGGTCC | 0.0536
127 | CCACGAAC | 0.127
128 | ACATGACG | -0.0713
129 | ATTGTAAC | 0.162
130 | AAGTTACG | 0.0736
131 | GCAGAAAC | 0.208
132 | AGATCGCG | 0.113
133 | GCTAGATA | 0.14
134 | GACACGCA | 0.117
135 | ACTAAAAG | -0.0602
136 | CTAAGAGA | -0.0535
137 | GTATGGTA | 0.0453
138 | TATAGTCA | 0.165
139 | CCAGACTC | -0.091
140 | AAGCTGAG | 0.064
141 | GAGAGCAC | -0.186
142 | GACAGTAC | 0.116
143 | CGAGAACC | 0.0726
144 | CCCCTAGG | -0.188
145 | CGAGATAA | 0.227
146 | ATAGGTGC | -0.0209
147 | TCGTAGAA | -0.121
148 | CATTACAG | 0.0228
149 | AGGCATAG | -0.0101
150 | CCCCGGCA | -0.278

Row | Sequence | PBM E-score
151 | AGCACCTA | 0.00318
152 | CATGACGG | -0.0626
153 | GGGGTGTA | -0.142
154 | CGCCATCA | -0.0887
155 | CGGGTTAA | 0.00237
156 | AAAAGGGG | -0.378
157 | GGAAATAA | 0.184
158 | ATCTTCGC | 0.223
159 | ATACAGTC | -0.167
160 | ACTGTATC | -0.17
161 | AACGCACC | -0.0282
162 | ATGGAATG | -0.0835
163 | TATCCAGA | -0.0239
164 | CCGGGCCG | -0.224
165 | CACCTTAC | -0.0464
166 | AGGCTCTG | -0.151
167 | TAGAAGGA | -0.272
168 | AACAGAAC | 0.0478
169 | TCAACTGA | -0.0367
170 | AAATGGTG | 0.121
171 | AGGATAGC | 0.0152
172 | ACCGTCTG | -0.277
